The values below come from US11566168B1, “Biocide blend for treating wellbores” (Halliburton Energy Services, Inc., priority 2021, dated 2023).

A short description of this series: Properties that a biocide or blend possesses (Table 1). An excerpt:
Some of the desirable properties can include maintaining biocidal activity in fluids having a high salinity or a high concentration of total dissolved solids, thermal stability, maintaining biocidal activity in the presence of ammonia or primary amines, quick kill, maintaining biocidal activity for extended periods of time—also known as persistence, and no interaction between the biocide and other additives having a negative charge (anions) within a treatment fluid.
The second property can be different. […] It is to be understood that unlike a triazine compound, glutaraldehyde is not a formaldehyde-releasing biocide.

In the case of 1,3,5-triazine, the Persistence result is recorded as “Yes”.
Regarding `O=CCCCC=O` [Glutaraldehyde, glutaraldehyde, reference compound], the Persistence entry was “No”.
